Hit rate of the full screen: of about 330,000 compounds, about 7,700 (2.3%) were called active. Inconclusive results, whose numbers are uncertain, are shown with a selection of clear calls. The call rests on the fitted dose curve; in most records, active means well fitted inhibition curve with a large enough effect; inconclusive means small, poorly fitted or top-dose-only effect, or effect the other way; inactive means flat fitted curve, though single readings scatter. Where the call is inconclusive, the potency comes from a doubtful curve fit.
Assay: qHTS screen for small molecules that inhibit ELG1-dependent DNA repair in human embryonic kidney (HEK293T) cells expressing luciferase-tagged ELG1; further: nearly all actives have a fitted effect of over 55% in size
Conditions: HEK293T ELG1-luciferase reporter, luminescence, 16 h, DNA damage induced by 5-fluorouridine; activity change, negative = inhibition: at 46.1 µM (top of the series)
Procedure, shortened: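 Step one: seed 2,000 cells per well. Step two: pin-transfer compound or DMSO alongside 5-fluorouridine. Step three: incubate 16 hr, 37 °C, 5% CO2. Step four: add ONE-Glo, wait 30 min, read luminescence.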
With Cc1cc(C(C)(C)C)oc1C(=O)OCC(=O)NC1CCCCC1 the Potency was inconclusive: 6.51 µM [inhibitor, single point]. With CCn1nc(C(=O)Nc2nc(-c3ccccn3)cs2)c2ccccc2c1=O the Potency was active: 4.11 µM. With CC1(C)CC(=O)C=C(c2ccc(OC(F)(F)F)cc2)C1 the Potency was inconclusive: 1.03 µM [activator, single point]. For CS(=O)(=O)c1ccc2nc(NC(=O)c3ccc(Cl)cc3)sc2c1, the “activity change, negative = inhibition” value was inactive: 0.173%. In the case of O=C1C=C(Nc2ccc(Cl)cc2)CC(c2ccco2)C1 (centres undefined), the Potency is reported as inconclusive: 25.9 µM [inhibitor, single point]. In the case of COc1ccc(-c2noc(N3CCC(C(=O)NCc4ccccc4Cl)CC3)n2)cc1, the Potency is reported as inconclusive: 20.6 µM [inhibitor, single point]. For NC(N)=Nc1nc(CCN2C(=O)c3ccccc3C2=O)cs1, the “activity change, negative = inhibition” value was inactive: -0.378%. With CCOC(=O)c1sc(=NC(=O)c2cccc(C)c2)n(C)c1C the Potency was inconclusive: 1.83 µM [activator, full curve]. In the case of CCOC(=O)Cc1csc(NC(=O)Cn2cnc3c2c(=O)n(C)c(=O)n3C)n1, the “activity change, negative = inhibition” value is reported as inactive: 5.2%. In the case of O=C(CN1CCC(NC(=O)Nc2ccccc2)CC1)Nc1ccc([N+](=O)[O-])cc1, the Potency is reported as inconclusive: 2.06 µM [inhibitor, single point]. In the case of CC(=O)n1cc(/C=N/NC(N)=S)c2ccccc21, the “activity change, negative = inhibition” value is reported as inactive: 19.3%. In the case of CCC(c1c(C)[nH]oc1=O)c1c(C)[nH]oc1=O, the Potency is reported as inconclusive: 0.891 µM [inhibitor, partial curve, poor fit]. For Cc1ccc(-n2ncc3ccccc3c2=O)cc1Cl, the Potency was inconclusive: 16.4 µM [activator, partial curve]. With CC(C)(C)c1ccc(C(=O)NCC(=O)N2CCCC2)cc1 the Potency was inconclusive: 18.3 µM [activator, partial curve]. For CCCc1nc2sc3ccccc3c(=O)c2c(=O)n1Cc1ccco1, the “activity change, negative = inhibition” value was inactive: 2.44%. For Cc1cccc(NC(=S)N(CCc2nc3cc(C)c(C)cc3[nH]2)Cc2cccnc2)c1, the “activity change, negative = inhibition” value was inactive: -21.1%. For Cc1nc(-c2ccccc2)nc2[nH]c(-c3ccccc3)cc(=O)c12, the Potency was inconclusive: 18.4 µM [inhibitor, single point]. For Cn1c(=O)oc2cc(S(=O)(=O)N3CCCC(C(=O)NC4CCCc5ccccc54)C3)ccc21 (centres undefined), the Potency was active: 2.91 µM. For COc1ccc(C(=O)N2CCCC(Nc3ccc(C)c(C)c3)C2)cc1F (centres undefined), the Potency was inconclusive: 0.184 µM [activator, partial curve, poor fit]. For C/C(=C\c1ccccc1)C(=O)N1CCN(Cc2ccc3c(c2)OCO3)CC1, the Potency was active: 7.3 µM. For CCCN(c1ccc(OCC)cc1)c1ncnc2nc[nH]c12, the Potency was inconclusive: 7.31 µM [inhibitor, partial curve]. With COC(=O)c1sc2nc3c(cc2c1N)COC(C)(C)C3 the Potency was inconclusive: 5.17 µM [activator, partial curve]. With COc1ccc(NC(=O)c2ccc(C)cc2Cl)c([N+](=O)[O-])c1 the Potency was inconclusive: 11.2 µM [activator, partial curve, poor fit]. For O=C(Nc1ccc([N+](=O)[O-])cc1)Nc1ccc2c(c1)OCCO2, the Potency was inconclusive: 2.06 µM [activator, partial curve]. With COc1ccccc1CCN=C(N)NS(=O)(=O)c1ccc(F)cc1 the “activity change, negative = inhibition” value was inactive: -13.4%. In the case of COc1c(Cl)cc(C(=O)Nc2ccc(Cl)cn2)cc1Cl, the Potency is reported as inconclusive: 11.6 µM [activator, partial curve]. For CCCS(=O)(=O)Nc1cccc(-c2nc3cccnc3s2)c1, the Potency was inconclusive: 32.6 µM [activator, single point]. With CCC(=O)Nc1ccc(NC(=O)c2ccccc2)nc1 the Potency was inconclusive: 2.59 µM [activator, full curve]. For C/C(=N\OC(=O)c1ccc(F)cc1)c1sc(-c2ccccc2)nc1C, the Potency was inconclusive: 4.11 µM [activator, partial curve, poor fit]. In the case of CCCc1nc2oc3c(NCC(C)O)ncnc3c2c2c1CCCC2 (centres undefined), the Potency is reported as active: 23.1 µM. In the case of O=C(NC1CC2CCC(C1)N2Cc1nnnn1Cc1ccco1)NC12CC3CC(CC(C3)C1)C2 (centres undefined), the Potency is reported as inconclusive: 18.4 µM [inhibitor, partial curve]. With Cc1cccn2c(=O)c3cc(C(=O)N4CCOCC4)n(C)c3nc12 the “activity change, negative = inhibition” value was inactive: 18.3%. With COc1ccc(CNc2nc(SCc3cc(=O)n4cc(Cl)ccc4n3)nc3ccccc23)cc1 the Potency was inconclusive: 32.6 µM [activator, partial curve, poor fit]. For O=C(Sc1ccccc1)c1cccc(Cn2cc(C(F)(F)F)ccc2=O)c1, the “activity change, negative = inhibition” value was inactive: 4.06%. With c1ccc(-c2nnc(CN3CCCc4ccccc43)o2)cc1 the Potency was inconclusive: 16.4 µM [activator, single point]. In the case of O=C(CN1C(=O)c2cccnc2Oc2ccc(Cl)cc21)NC1CCCCCC1, the Potency is reported as inconclusive: 32.6 µM [inhibitor, single point]. For COc1ccc(Nc2nc(C(=O)N(CCO)Cc3ccccc3)cs2)cc1, the Potency was inconclusive: 29.1 µM [inhibitor, single point]. In the case of Cc1cccc(Nc2n[nH]c(C)c2[N+](=O)[O-])c1, the Potency is reported as inconclusive: 2.59 µM [activator, full curve]. With Cc1ccc2nsnc2c1S(=O)(=O)NCCc1c(C)[nH]c2ccc(F)cc12 the “activity change, negative = inhibition” value was inactive: -12.1%. For N#C/C(=N/Nc1ccc(OC(F)(F)F)cc1)C(N)=S, the Potency was inconclusive: 29.1 µM [activator, single point]. In the case of COc1ccc(C)cc1NC(=O)CCC(=O)Nc1ccc2nc(N3CCN(C)CC3)cc(C)c2c1, the Potency is reported as inconclusive: 35.5 µM [inhibitor, single point]. For Cc1ccc(S(=O)(=O)N2CCN(CC(=O)N3CCCC3)CC2)c(C)c1, the Potency was inconclusive: 4.11 µM [activator, single point]. In the case of Cc1ccc(S(=O)(=O)NCCNC(=O)c2ccccc2)cc1, the “activity change, negative = inhibition” value is reported as inactive: -5.79%. In the case of Cc1ccc(NC(=S)N2CCC(c3ccc(C)cc3)C2)cc1 (centres undefined), the Potency is reported as inconclusive: 13 µM [activator, partial curve]. For Cc1ccc(CN2CCN(Cc3ccc(-n4cccn4)cc3C)CC2CCO)cc1 (centres undefined), the Potency was inconclusive: 9.2 µM [inhibitor, partial curve]. With COc1ccc(Nc2c3ccccc3nc3ccccc23)cc1 the Potency was inconclusive: 1.64 µM [inhibitor, full curve, poor fit]. With CCOC(=O)c1cccc(NC(=O)/C=C/c2ccc3c(c2)OCO3)c1 the Potency was inconclusive: 29.1 µM [inhibitor, single point]. For COC(=O)C1=C(N)Oc2c(oc(CO)cc2=O)C1c1ccc(F)cc1 (centres undefined), the Potency was inconclusive: 18.3 µM [activator, partial curve]. For CCc1cc2c(NCC3CCCO3)nc(C)nc2s1 (centres undefined), the Potency was inconclusive: 16.4 µM [inhibitor, partial curve]. With Cc1cc2c(s1)c1cnn(CC(=O)NCCc3ccccc3)c(=O)c1n2C the “activity change, negative = inhibition” value was inactive: -2.56%. In the case of COC(=O)c1sccc1NC(=O)c1ccc(Br)o1, the “activity change, negative = inhibition” value is reported as inactive: -10.6%. In the case of NC(=O)c1ccccc1N/C=C/C(=O)c1ccc(Cl)cc1Cl, the Potency is reported as inconclusive: 1.3 µM [activator, partial curve]. In the case of c1ccc(Nc2ccnc(Nc3ccccc3)n2)cc1, the Potency is reported as inconclusive: 6.51 µM [activator, full curve]. For CC(=O)c1cccc(CN2CCCC(C(=O)Nc3ccc(-c4ccco4)cc3)C2)c1 (centres undefined), the Potency was inconclusive: 8.2 µM [inhibitor, partial curve, poor fit]. For CS(=O)(=O)c1ccc(C(=O)OCC(=O)Nc2cccnc2Cl)cc1[N+](=O)[O-], the Potency was inconclusive: 29.1 µM [inhibitor, single point]. With CN(C(=O)COC(=O)c1ccc2c(c1)OCCO2)C1CCCCC1 the Potency was inconclusive: 7.3 µM [activator, partial curve, poor fit]. With Oc1[nH]c2ccccc2c1N=NC(=S)N1CCOCC1 the Potency was inconclusive: 5.17 µM [inhibitor, single point]. With COc1ccc2c(c1)[nH]c(=O)c1sc3ccccc3c12 the “activity change, negative = inhibition” value was inactive: 8.52%. In the case of Cc1ccc(Nc2nnc(-c3ccccc3N)o2)cc1C, the Potency is reported as inconclusive: 2.31 µM [activator, full curve]. With CS(=O)(=O)Nc1cccc(C2=NN(C(=O)c3ccco3)C(c3ccco3)C2)c1 (centres undefined) the Potency was inconclusive: 2.91 µM [inhibitor, partial curve, poor fit]. With Cc1nc2ccc(NC(=O)N3CCCCC3)cc2nc1C the Potency was inconclusive: 9.2 µM [inhibitor, partial curve, poor fit]. For CCOc1ccc(NC(=O)CN(C)C(=O)c2cc(S(=O)(=O)N3CCCCC3)ccc2C)cc1OCC, the “activity change, negative = inhibition” value was inactive: -19.6%. With CC(C(=O)c1ccccc1)n1cnc2ccccc2c1=O (centres undefined) the Potency was inconclusive: 18.4 µM [activator, partial curve, poor fit]. In the case of Cn1nc(C(=O)Nc2nc(-c3ccc(F)cc3)cs2)ccc1=O, the Potency is reported as inconclusive: 13 µM [inhibitor, partial curve]. In the case of O=C(Nc1ccccc1)C1CCCN1/C=C/C(=O)C(F)(F)F (centres undefined), the Potency is reported as inconclusive: 14.6 µM [activator, partial curve, poor fit]. In the case of CCSc1cc(C2C(C#N)=C(N)OC(C)=C2C(=O)OC)c(C)o1 (centres undefined), the “activity change, negative = inhibition” value is reported as inactive: 10.7%. In the case of CCCc1cc(C(=O)N2CCCC(Nc3ccc(C)c(C)c3)C2)n(C)n1 (centres undefined), the Potency is reported as inconclusive: 8.2 µM [inhibitor, partial curve, poor fit]. In the case of CCCCNC(=S)N1CCn2cccc2C1c1ccccc1 (centres undefined), the Potency is reported as inconclusive: 20.6 µM [inhibitor, single point]. For CC(=O)c1sc(NC(=O)c2oc3ccc(F)cc3c2C)nc1C, the Potency was inconclusive: 3.55 µM [activator, full curve].
On the % scale 0 is the no-effect control and ±100 the full control effect; potency means the concentration at half of the fitted maximal effect.
